Data taken from article PMC3387161, “Small Molecules Targeted to a Non-Catalytic “RVxF” Binding Site of Protein Phosphatase-1 Inhibit HIV-1” (PLoS ONE, 2012).

The chains behind the UniProt entries cited, without tags or fusion partners.
UniProt P62136: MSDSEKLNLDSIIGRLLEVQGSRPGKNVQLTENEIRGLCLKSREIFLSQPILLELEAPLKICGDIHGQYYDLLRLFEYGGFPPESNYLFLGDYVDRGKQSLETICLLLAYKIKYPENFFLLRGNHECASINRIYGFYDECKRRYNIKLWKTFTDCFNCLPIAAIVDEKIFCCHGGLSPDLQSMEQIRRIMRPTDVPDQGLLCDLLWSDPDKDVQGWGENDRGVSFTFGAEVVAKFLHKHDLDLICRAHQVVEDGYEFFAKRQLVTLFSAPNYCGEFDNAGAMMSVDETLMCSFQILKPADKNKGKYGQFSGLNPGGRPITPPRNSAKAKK
UniProt Q12972: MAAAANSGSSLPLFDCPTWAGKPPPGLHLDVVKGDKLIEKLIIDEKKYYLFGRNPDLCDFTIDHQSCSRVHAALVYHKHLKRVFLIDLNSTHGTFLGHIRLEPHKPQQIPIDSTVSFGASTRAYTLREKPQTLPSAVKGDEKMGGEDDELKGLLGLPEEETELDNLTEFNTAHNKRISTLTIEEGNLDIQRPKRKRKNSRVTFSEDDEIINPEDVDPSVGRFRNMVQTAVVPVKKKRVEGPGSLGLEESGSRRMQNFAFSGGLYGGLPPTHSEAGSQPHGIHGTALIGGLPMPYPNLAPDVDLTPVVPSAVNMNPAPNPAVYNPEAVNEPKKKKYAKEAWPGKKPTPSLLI

B1: PNUTS (Phosphatase Nuclear Targeting Subunit) (protein, UniProt Q96QC0 1-940)
chain: MGSGPIDPKELLKGLDSFLNRDGEVKSVDGISKIFSLMKEARKMVSRCTYLNILLQTRSPEILVKFIDVGGYKLLNNWLTYSKTTNNIPLLQQILLTLQHLPLTVDHLKQNNTAKLVKQLSKSSEDEELRKLASVLVSDWMAVIRSQSSTQPAEKDKKKRKDEGKSRTTLPERPLTEVKAETRAEEAPEKKREKPKSLRTTAPSHAKFRSTGLELETPSLVPVKKNASTVVVSDKYNLKPIPLKRQSNVAAPGDATPPAEKKYKPLNTTPNATKEIKVKIIPPQPMEGLGFLDALNSAPVPGIKIKKKKKVLSPTAAKPSPFEGKTSTEPSTAKPSSPEPAPPSEAMDADRPGTPVPPVEVPELMDTASLEPGALDAKPVESPGDPNQLTRKGRKRKSVTWPEEGKLREYFYFELDETERVNVNKIKDFGEAAKREILSDRHAFETARRLSHDNMEEKVPWVCPRPLVLPSPLVTPGSNSQERYIQAEREKGILQELFLNKESPHEPDPEPYEPIPPKLIPLDEECSMDETPYVETLEPGGSGGSPDGAGGSKLPPVLANLMGSMGAGKGPQGPGGGGINVQEILTSIMGSPNSHPSEELLKQPDYSDKIKQMLVPHGLLGPGPIANGFPPGGPGGPKGMQHFPPGPGGPMPGPHGGPGGPVGPRLLGPPPPPRGGDPFWDGPGDPMRGGPMRGGPGPGPGPYHRGRGGRGGNEPPPPPPPFRGARGGRSGGGPPNGRGGPGGGMVGGGGHRPHEGPGGGMGNSSGHRPHEGPGGGMGSGHRPHEGPGGSMGGGGGHRPHEGPGGGISGGSGHRPHEGPGGGMGAGGGHRPHEGPGGSMGGSGGHRPHEGPGHGGPHGHRPHDVPGHRGHDHRGPPPHEHRGHDGPGHGGGGHRGHDGGHSHGGDMSNRPVCRHFMMKGNCRYENNCAFYHPGVNGPPLP

Target: endogenous PP1α (human (endogenous in 293T)) (UniProt P62136)
Assay: affinity purification with mass spectrometry

| Molecule | binding |
| --- | --- |
| NIPP1 (Nuclear Inhibitor of PP1) (from UniProt Q12972 1-351) | binds |
| B1 | binds |

No constants are given. Whether binding was seen depends on the method and setting. In cells and extracts the contact can be indirect. A yes stands for co-enrichment or nearness to the bait. Other partners may have been found.
